According to article PMC10131429:
No constants are given. Whether binding was seen depends on the method and setting. Binding seen in cells or lysates may run through a third protein. Some binding calls cover weakened binding; strength is not graded here.

Protein sequences, listed by entry. Tags and fused reporters are not part of them.
UniProt Q04206: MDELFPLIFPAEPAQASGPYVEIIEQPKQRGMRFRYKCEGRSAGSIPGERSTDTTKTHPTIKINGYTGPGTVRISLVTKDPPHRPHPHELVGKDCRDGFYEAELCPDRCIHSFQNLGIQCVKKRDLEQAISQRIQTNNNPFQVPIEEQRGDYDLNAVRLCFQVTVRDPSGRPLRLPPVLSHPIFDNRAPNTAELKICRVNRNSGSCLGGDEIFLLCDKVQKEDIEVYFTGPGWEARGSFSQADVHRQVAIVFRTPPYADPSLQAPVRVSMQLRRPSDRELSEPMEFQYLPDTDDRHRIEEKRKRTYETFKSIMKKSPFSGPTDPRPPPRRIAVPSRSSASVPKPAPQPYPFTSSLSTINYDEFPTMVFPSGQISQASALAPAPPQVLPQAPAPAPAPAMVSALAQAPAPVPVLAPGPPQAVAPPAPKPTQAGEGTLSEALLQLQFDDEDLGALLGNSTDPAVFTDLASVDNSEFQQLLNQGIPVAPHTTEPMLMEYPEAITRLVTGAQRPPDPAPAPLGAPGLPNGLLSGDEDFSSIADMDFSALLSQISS
UniProt O43143: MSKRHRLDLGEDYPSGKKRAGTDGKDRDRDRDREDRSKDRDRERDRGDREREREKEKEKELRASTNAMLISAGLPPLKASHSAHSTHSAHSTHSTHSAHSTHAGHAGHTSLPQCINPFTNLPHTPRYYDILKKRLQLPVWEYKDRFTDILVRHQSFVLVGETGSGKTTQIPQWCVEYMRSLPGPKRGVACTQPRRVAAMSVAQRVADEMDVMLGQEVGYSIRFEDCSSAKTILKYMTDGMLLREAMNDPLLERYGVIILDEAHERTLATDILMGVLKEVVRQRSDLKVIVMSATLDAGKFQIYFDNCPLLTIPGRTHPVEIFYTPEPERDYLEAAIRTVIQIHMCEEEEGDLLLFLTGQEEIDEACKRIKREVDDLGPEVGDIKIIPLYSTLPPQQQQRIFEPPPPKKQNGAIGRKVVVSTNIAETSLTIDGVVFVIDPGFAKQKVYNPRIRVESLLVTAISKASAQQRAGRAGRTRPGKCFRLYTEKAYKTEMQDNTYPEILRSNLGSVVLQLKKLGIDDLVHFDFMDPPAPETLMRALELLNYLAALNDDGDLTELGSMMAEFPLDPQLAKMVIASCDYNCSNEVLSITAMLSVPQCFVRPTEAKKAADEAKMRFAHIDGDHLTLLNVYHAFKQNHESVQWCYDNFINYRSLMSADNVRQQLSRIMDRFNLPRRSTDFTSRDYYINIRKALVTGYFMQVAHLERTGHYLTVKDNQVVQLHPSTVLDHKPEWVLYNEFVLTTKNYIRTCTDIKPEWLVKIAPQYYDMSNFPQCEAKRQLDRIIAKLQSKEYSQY

Target: NF-κB p65 (human (endogenous in BC cell lines)) (UniProt Q04206)
Test: co-IP; endogenous proteins in BC cells lysed by RIPA; lysate with anti-DHX15 or anti-NF-κB p65 at 4 °C overnight, Protein A/G PLUS Agarose, western blotting; also done after inhibition of circRNF10 (si-circRNF10), where the interaction increased

binding: binds
Substance: DEAH (Asp-Glu-Ala-His) box helicase 15 (from UniProt O43143 1-795)
